# In publication PMC5996148:
# Some of the results follow.
# How the values were obtained:
# Test in all cases: protein microarray (ProtoArray v5.0), streptavidin-Alexa Fluor 647
# Conditions in all cases: 3'-biotin; 20 mM Tris (pH 7.5), 5 mM MgCl2, 100 mM KCl, 0.1% Tween-20, A/T-rich and random oligonucleotide blockers; temperature not stated; high values mean tight binding
# [1] = test system: cDNA clone MGC:12418 IMAGE:3934658, complete cds (human)
# [2] = test system: cDNA clone MGC:15478 IMAGE:2967661, complete cds (human)
# [3] = test system: cDNA clone MGC:16743 IMAGE:4130428 (human)
# [4] = test system: cDNA clone MGC:17055 IMAGE:4338834 (human)
# [5] = test system: cDNA clone MGC:23693 IMAGE:4767650 (human)
# [6] = test system: cDNA clone MGC:25008 IMAGE:4453355, complete cds (human)
# [7] = test system: cDNA clone MGC:31936 IMAGE:4765518, complete cds (human)
# [8] = test system: cDNA clone MGC:32654 IMAGE:4701898, complete cds (human)
# [9] = test system: cDNA clone MGC:34832 IMAGE:5203730 (human)
# [10] = test system: cDNA clone MGC:40177 IMAGE:5167345, complete cds (human)
# [11] = test system: cDNA clone MGC:45422 IMAGE:5246377 (human)
# [12] = test system: cDNA clone MGC:48448 IMAGE:5266019 (human)
# [13] = test system: cDNA clone MGC:52019 IMAGE:5188979 (human)
# [14] = test system: cDNA clone MGC:70358 IMAGE:5539182 (human)
# [15] = test system: cDNA clone MGC:8430 IMAGE:2821116 (human)
# [16] = test system: cDNA clone MGC:87928 IMAGE:5104751 (human)
# [17] = test system: cDNA clone MGC:88809 IMAGE:6279986 (human)
# [18] = test system: guanine-9- (human)
# [19] = test system: hypothetical LOC554201 (human)
# [20] = test system: mRNA similar to hypothetical protein FLJ20234 (human)
sequence,measurement,setting,value
GGTGACAGGGGTATGGGGAGGGG [G4-2 biotinylated (Ct1)],binding signal,[1],-0.387 z-score
same,binding signal,[2],-0.388 z-score
same,binding signal,[3],-0.382 z-score
same,binding signal,[4],-0.385 z-score
same,binding signal,[5],-0.385 z-score
same,binding signal,[6],-0.385 z-score
same,binding signal,[7],-0.387 z-score
same,binding signal,[8],-0.4 z-score
same,binding signal,[9],-0.38 z-score
same,binding signal,[10],-0.377 z-score
same,binding signal,[11],6.09 z-score
same,binding signal,[12],-0.368 z-score
same,binding signal,[13],-0.379 z-score
same,binding signal,[14],-0.39 z-score
same,binding signal,[15],-0.389 z-score
same,binding signal,[16],-0.39 z-score
same,binding signal,[17],-0.374 z-score
same,binding signal,[18],3.44 z-score
same,binding signal,[19],-0.39 z-score
same,binding signal,[20],-0.379 z-score

# Already shown: an excerpt of the list.
sequence,measurement,setting,value
GGTGACAGGGGTATGGGGAGGGG [G4-2 biotinylated (Ct1)],binding signal,[11],6.09 z-score
same,binding signal,[12],-0.368 z-score
